# PubChem BioAssay AID504791, Drosophila RNAi Screening Center, 2011
# Screen: 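Factors in Argonaute-based small RNA production and activity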 (primary screen)
# System: Drosophila S2-derived reporter cells
# Knock-down reagent: long dsRNA against Drosophila genes, about 150-250 ng dsRNA per well (siRNA assay); about 80-120 ng (miRNA assay)
# Timing: about 5 days (siRNA assay); about 4 days (miRNA assay)
# Challenge: copper sulfate induction of reporters: 25 µM (siRNA assay); 200 mM stated (miRNA assay), 1-2 days before reading
# Detection: 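Dual luciferase assay: Renilla to firefly signal ratio in each well, scaled to the mean ratio of its plate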
# Hit rule: 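a well was a first-pass pick when its plate-scaled ratio rose above 1.5 (siRNA assay) or 1.6 (miRNA assay), or dropped below 0.6; a gene counted only if two separate dsRNAs agreed on retest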
# The screen tested about 23,000 reagents; shown is a random part of those with a known target gene and a result. Over the whole deposit, 199 (0.86%) got an active call. 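Plate-scaled ratios behind the calls are not deposited; printed light signals are raw; many rows marked increased or decreased are still called inactive.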 Unmarked entries are inactive. Names joined by + are all predicted targets of the reagent. Not given: the direction of the score.
target gene,PubChem SID,miRNA reporter change,"stable assay Renilla, run 1 (luminescence)","stable assay firefly, run 1 (luminescence)"
CG4610 (GeneID 37571),SID104184269,,7330,5.39e5
CG4610 (GeneID 37571),SID104201875,,5027,5.31e5
Non2 (GeneID 38341),SID104188064,,11410,3.80e5
CG6912 (GeneID 41820),SID104195924,,8991,6.22e5
CG10910 (GeneID 37052),SID104185799,,5244,4.11e5
D1 (GeneID 41095),SID104196430,,8302,5.48e5
S6k (GeneID 38654),SID104191068,,5459,3.92e5
Pfas (GeneID 33847),SID104183272,,20224,6.31e5
CG4424 (GeneID 42390),SID104195368,,7639,2.62e5
CG11437 (GeneID 40470),SID104191451,,5903,3.62e5
CG14071 (GeneID 34507),SID104182166,,7427,4.09e5
CG16700 (GeneID 32694),SID104199547,,2908,2.41e5
ort (GeneID 45910),SID104196032,,7914,3.31e5
CG4281 (GeneID 31171),SID104198313,,9009,6.06e5
ro (GeneID 43234),SID104196838,,4607,3.03e5
CG18568 (GeneID 36549),SID104186560,reporter ratio raised past the hit cutoff,10247,5.24e5
CG18568 (GeneID 36549),SID104203257,reporter ratio raised past the hit cutoff,,
Pi3K68D (GeneID 39329),SID104191045,,6119,4.68e5
NijB (GeneID 40057),SID104189642,,3635,4.47e5
nanos (GeneID 42297),SID104196810,,7762,3.10e5
Acat1 (GeneID 31695),SID104197558,,7022,3.22e5
TotE (GeneID 35275),SID104201129,,7698,4.60e5
CG42327 (GeneID 41401),SID104194728,,5794,2.69e5
CG42327 (GeneID 41401),SID104194729,,6946,4.21e5
CG42327 (GeneID 41401),SID104202694,,6446,4.53e5
Bace (GeneID 34182),SID104181989,,4615,4.86e5
CG13068 (GeneID 39784),SID104189743,,7123,3.81e5
RAF2 (GeneID 39821),SID104190235,,7526,2.45e5
RAF2 (GeneID 39821),SID104190246,,7922,4.07e5
CG11658 (GeneID 39319),SID104189644,,6143,3.42e5
CG15571 (GeneID 31365),SID104197851,,4867,2.61e5
Cdk7 (GeneID 31441),SID104198243,,5099,3.58e5
Cdk7 (GeneID 31441),SID104202684,,3523,2.75e5
CG8560 (GeneID 38830),SID104190786,,9109,3.81e5
Dcr-1 (GeneID 42693),SID104195438,,7887,3.42e5
CG7328 (GeneID 40204),SID104190604,,7799,4.08e5
Slimp (GeneID 318604),SID104193448,,4144,3.34e5
Gyc76C + CG42637,SID104190972,,8801,3.53e5
Pdp1 (GeneID 45588),SID104188688,reporter ratio raised past the hit cutoff,2748,2.16e5
Pdp1 (GeneID 45588),SID104188689,,3204,2.16e5
Pdp1 (GeneID 45588),SID104191043,,6638,4.66e5
Pdp1 (GeneID 45588),SID104202330,,3595,3.63e5
CG1677 (GeneID 31662),SID104197908,,4440,3.61e5
aft (GeneID 37034),SID104187368,,9893,3.27e5
Notum (GeneID 39751),SID104189751,,7923,3.76e5
CG9689 (GeneID 31922),SID104198232,,6443,3.48e5
Trs23 (GeneID 34197),SID104182982,,7256,4.08e5
CG42518 + MED9,SID104186709,,9500,3.57e5
Uck (GeneID 42894),SID104193453,,5978,5.76e5
Uck (GeneID 42894),SID104195820,,6487,3.99e5
CG43795 (GeneID 5740629),SID104183984,,7362,5.11e5
CG43795 (GeneID 5740629),SID104183985,,7634,4.52e5
CG43795 (GeneID 5740629),SID104183986,,5100,3.31e5
CG43795 (GeneID 5740629),SID104184101,,5358,3.64e5
CG43795 (GeneID 5740629),SID104184102,,5483,4.04e5
CG43795 (GeneID 5740629),SID104202185,,3691,4.03e5
CG18622 (GeneID 42044),SID104195152,,7324,4.82e5
BBS9 (GeneID 37439),SID104184049,,7522,5.83e5
CG6179 (GeneID 32819),SID104199765,,5578,4.20e5
CG12391 (GeneID 36170),SID104185939,,8333,5.27e5
ARY (retired record) (GeneID 3355076),SID104200659,,3487,3.85e5
Ugt37C2 (GeneID 53513),SID104182039,,8134,4.11e5
CG17738 (GeneID 41490),SID104195049,,6082,3.44e5
nod (GeneID 32107),SID104198692,,4859,3.96e5
nod (GeneID 32107),SID104200148,,8391,5.08e5
CIA30 (GeneID 43503),SID104196058,,9082,7.39e5
MFS15 (GeneID 37168),SID104186315,,7590,4.33e5
CG10317 (GeneID 41987),SID104194021,,7508,3.34e5
CG13284 (GeneID 35021),SID104182048,,6931,3.94e5
CG6652 (GeneID 39905),SID104190478,,7710,2.48e5
CG32987 (GeneID 318273),SID104201856,,10027,6.15e5
CG18853 (GeneID 246511),SID104186587,,6551,5.08e5
CG13287 (GeneID 38660),SID104189753,,4296,3.55e5
ssp (GeneID 39375),SID104190044,,7152,3.83e5
CG1789 (GeneID 31812),SID104197932,,9760,6.25e5
CG1468 (GeneID 31920),SID104197738,,7083,4.15e5
rempA (GeneID 33230),SID104180119,,7207,4.15e5
Alp8 (GeneID 37540),SID104184145,,5906,5.24e5
CG33758 (GeneID 3772381),SID104184950,,5939,5.10e5
CG3652 (GeneID 33643),SID104180416,,7758,5.23e5
CG8526 (GeneID 41208),SID104196230,,7230,4.26e5
ppk21 (GeneID 43485),SID104194258,,6356,3.83e5
CG30195 (GeneID 37592),SID104183947,,5999,3.52e5
CG18682 (retired record) (GeneID 50098),SID104195165,,6802,4.20e5
CG18682 (retired record) (GeneID 50098),SID104195166,,6179,4.61e5
csw (GeneID 45278),SID104198548,reporter ratio lowered past the hit cutoff,5267,3.65e5
csw (GeneID 45278),SID104202683,,3988,2.58e5
fray (GeneID 44233),SID104196742,,7235,3.44e5
dac (GeneID 34982),SID104183310,,7200,3.96e5
CG31249 (GeneID 42129),SID104196040,,6979,4.40e5
CG15208 (GeneID 32022),SID104199446,,6899,4.39e5
Rpn13R (GeneID 31433),SID104198196,,6402,3.10e5
dpn (GeneID 35800),SID104187397,,6963,3.85e5
CG13471 (GeneID 39604),SID104189807,,7786,4.00e5
elm (GeneID 40695),SID104192101,,8611,4.39e5
Art9 (GeneID 41698),SID104196376,,7271,4.50e5
Atat (GeneID 39086),SID104190184,,8497,4.49e5
CG12204 (GeneID 32937),SID104199234,,6504,5.76e5
CG17562 (GeneID 42021),SID104195035,,7047,4.29e5
Mst84Dc (GeneID 40887),SID104192391,,6111,4.17e5
Gba1a (GeneID 42796),SID104201223,,8979,4.11e5
CG11417 (GeneID 31083),SID104198373,,8739,5.69e5
CG6701 (GeneID 36550),SID104186799,,9434,5.83e5
Wdr81 (GeneID 34616),SID104182777,,15902,3.04e5
CG4741 (GeneID 37939),SID104184277,,7364,4.35e5
l(3)80Fj (GeneID 3355040),SID104200778,,4500,3.11e5
l(3)80Fj (GeneID 3355040),SID104200781,,7326,5.13e5

Laid out differently: entries from further up
| target gene | PubChem SID | miRNA reporter change | stable assay Renilla, run 1 (luminescence) | stable assay firefly, run 1 (luminescence) |
| --- | --- | --- | --- | --- |
| CG10910 (GeneID 37052) | SID104185799 | – | 5244 | 4.11e5 |
| D1 (GeneID 41095) | SID104196430 | – | 8302 | 5.48e5 |
| S6k (GeneID 38654) | SID104191068 | – | 5459 | 3.92e5 |
| Pfas (GeneID 33847) | SID104183272 | – | 20224 | 6.31e5 |
| CG4424 (GeneID 42390) | SID104195368 | – | 7639 | 2.62e5 |
| CG11437 (GeneID 40470) | SID104191451 | – | 5903 | 3.62e5 |
| CG14071 (GeneID 34507) | SID104182166 | – | 7427 | 4.09e5 |
| CG16700 (GeneID 32694) | SID104199547 | – | 2908 | 2.41e5 |
